The inconclusive results got no clear call from the source; some entries with a clear call stand among them for comparison. For some of these results: Where the call is inconclusive, the potency comes from a doubtful curve fit. For some of these results: A note “side channel” means that the fit belongs to a control or component signal, not to the main read-out. Calls of active or inactive are those of the source. Unless noted, calls follow the shape of the full dose curve.
Tests used:
[1] = molecular target: Lysosomal alpha-glucosidase (Homo sapiens) (UniProt P10253); experiment: Confirmation of Inhibitors and Activators of Purified Human alpha-Glucosidase (AID 2115; active = well fitted curve in either direction with a large enough effect; inconclusive = small, poorly fitted or top-dose-only effect)
Procedure, shortened: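 Purified human enzyme (4 nM) with 4-methylumbelliferyl-alpha-D-glucopyranoside (400 uM), compounds up to 77 uM, in citrate/phosphate buffer pH 5.0 with 0.005% Tween-20. After 20 min at RT, stopped at pH 10; fluorescence ex 365/em 440 nm; AC50 from Hill fits.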

Amino acid sequences for entries named in this document (tags omitted). A change or cut given only in a name is not applied to a line headed by its entry.
UniProt P03372, whole entry, looked up: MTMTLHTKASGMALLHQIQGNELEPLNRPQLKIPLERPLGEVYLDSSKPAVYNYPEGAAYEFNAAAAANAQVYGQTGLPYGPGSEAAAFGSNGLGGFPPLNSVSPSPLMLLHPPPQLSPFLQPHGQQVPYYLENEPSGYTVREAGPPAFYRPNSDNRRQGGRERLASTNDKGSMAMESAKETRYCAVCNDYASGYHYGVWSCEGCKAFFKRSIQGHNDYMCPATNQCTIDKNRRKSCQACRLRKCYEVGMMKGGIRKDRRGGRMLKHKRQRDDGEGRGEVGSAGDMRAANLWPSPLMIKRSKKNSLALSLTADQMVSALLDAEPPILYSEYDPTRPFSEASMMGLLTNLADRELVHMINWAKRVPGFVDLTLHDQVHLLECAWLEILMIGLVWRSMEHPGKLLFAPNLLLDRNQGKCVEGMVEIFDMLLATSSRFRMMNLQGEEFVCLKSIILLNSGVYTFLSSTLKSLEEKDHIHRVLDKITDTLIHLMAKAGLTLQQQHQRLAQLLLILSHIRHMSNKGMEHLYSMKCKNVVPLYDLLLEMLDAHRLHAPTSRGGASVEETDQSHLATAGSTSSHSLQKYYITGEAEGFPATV
UniProt Q03181: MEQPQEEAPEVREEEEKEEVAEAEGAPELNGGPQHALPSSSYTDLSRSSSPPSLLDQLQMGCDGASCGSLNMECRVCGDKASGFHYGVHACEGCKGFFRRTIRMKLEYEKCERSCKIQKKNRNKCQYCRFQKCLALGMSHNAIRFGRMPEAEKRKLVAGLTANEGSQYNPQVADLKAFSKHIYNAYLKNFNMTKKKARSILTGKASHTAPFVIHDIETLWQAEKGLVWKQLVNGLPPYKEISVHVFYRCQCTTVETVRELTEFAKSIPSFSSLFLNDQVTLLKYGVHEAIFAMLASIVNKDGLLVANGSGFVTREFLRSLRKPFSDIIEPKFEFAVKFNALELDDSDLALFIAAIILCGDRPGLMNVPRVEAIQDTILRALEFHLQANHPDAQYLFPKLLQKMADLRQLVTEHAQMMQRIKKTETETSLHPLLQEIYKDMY
UniProt P19793: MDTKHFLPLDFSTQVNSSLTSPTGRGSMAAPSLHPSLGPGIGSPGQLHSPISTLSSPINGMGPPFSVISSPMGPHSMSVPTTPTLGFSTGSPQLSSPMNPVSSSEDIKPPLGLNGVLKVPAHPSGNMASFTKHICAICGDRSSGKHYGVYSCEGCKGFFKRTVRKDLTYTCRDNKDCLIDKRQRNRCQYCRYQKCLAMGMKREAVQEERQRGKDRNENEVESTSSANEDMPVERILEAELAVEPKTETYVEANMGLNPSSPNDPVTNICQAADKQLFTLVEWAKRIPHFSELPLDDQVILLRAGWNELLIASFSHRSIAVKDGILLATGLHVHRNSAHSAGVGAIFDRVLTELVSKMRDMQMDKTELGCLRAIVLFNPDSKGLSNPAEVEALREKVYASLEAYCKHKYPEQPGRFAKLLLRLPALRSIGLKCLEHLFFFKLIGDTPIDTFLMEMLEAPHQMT
UniProt P10828: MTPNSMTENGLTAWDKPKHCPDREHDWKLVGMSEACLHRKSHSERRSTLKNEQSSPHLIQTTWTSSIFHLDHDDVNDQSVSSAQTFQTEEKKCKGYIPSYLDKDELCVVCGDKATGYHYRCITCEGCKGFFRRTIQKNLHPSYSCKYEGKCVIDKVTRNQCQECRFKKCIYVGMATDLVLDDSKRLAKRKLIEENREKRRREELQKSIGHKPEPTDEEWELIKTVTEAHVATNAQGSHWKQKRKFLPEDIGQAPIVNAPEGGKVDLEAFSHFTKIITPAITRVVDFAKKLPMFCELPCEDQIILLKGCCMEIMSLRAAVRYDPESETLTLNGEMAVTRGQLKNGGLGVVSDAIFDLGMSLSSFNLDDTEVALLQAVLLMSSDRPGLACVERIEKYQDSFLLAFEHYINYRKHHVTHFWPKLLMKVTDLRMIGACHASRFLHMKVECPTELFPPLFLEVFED
UniProt P01375, whole entry, looked up: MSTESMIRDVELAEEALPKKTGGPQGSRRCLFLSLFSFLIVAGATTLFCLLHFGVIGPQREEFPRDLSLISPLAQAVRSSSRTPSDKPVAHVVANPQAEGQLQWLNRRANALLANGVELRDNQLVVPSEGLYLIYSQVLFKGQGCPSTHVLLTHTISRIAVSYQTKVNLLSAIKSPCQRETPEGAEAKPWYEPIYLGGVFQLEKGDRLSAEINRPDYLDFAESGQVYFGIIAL
UniProt P05177, whole entry, looked up: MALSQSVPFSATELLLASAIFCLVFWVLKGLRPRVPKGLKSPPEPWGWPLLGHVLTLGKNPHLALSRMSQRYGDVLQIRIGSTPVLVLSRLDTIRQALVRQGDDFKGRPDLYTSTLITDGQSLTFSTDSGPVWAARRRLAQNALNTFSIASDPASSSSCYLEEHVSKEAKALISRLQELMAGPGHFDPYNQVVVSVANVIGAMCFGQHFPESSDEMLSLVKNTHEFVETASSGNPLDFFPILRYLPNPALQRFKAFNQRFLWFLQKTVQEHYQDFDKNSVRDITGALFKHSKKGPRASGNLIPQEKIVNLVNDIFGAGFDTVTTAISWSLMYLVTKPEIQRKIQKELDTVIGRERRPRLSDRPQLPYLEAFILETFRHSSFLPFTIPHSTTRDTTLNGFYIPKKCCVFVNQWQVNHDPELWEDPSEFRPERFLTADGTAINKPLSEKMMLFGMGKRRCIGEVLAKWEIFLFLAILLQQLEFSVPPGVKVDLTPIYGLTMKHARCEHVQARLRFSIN

[2] = molecular target: Mitogen-activated protein kinase 10 (Mus musculus) (UniProt Q61831); experiment: JNK3 AlphaScreen Assay (AID 530; active = well fitted curve in either direction with a large enough effect, not every such curve was filed as active; inconclusive = small, poorly fitted or top-dose-only effect, or another doubt;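 also: kinase came from lysate of stimulated human HepG2 cells; potency is read from the fitted curve at half-maximal effect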); conditions: JNK3 lysate, c-Jun phosphorylation; activity change, negative = inhibition: at 57.1 µM (top of the series)
Procedure, shortened: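 Compound titrations were preincubated 15 minutes at room temperature with substrate, antibody and pre-activated JNK3-containing HepG2 lysate. Reactions were started with 10 uM ATP and stopped with EDTA-containing bead buffer for AlphaScreen detection.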

[3] = Cell Viability - NIH 3T3 (AID 541; active = well fitted curve in the direction sought with a large enough effect; inconclusive = small, poorly fitted or top-dose-only effect, or another doubt; inactive = no such curve, though single readings can be large; an effect the other way counts as inactive or inconclusive;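 also: plate controls were DMSO alone for no effect and tamoxifen positive control for full effect; nearly all actives have a fitted effect of over 25% in size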); conditions: NIH 3T3 cell viability, qHTS; activity change, negative = cytotoxicity: at 92.2 µM (top of the series)
Procedure, shortened: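 Mouse NIH 3T3 fibroblasts, 1000 cells/well, rested 5 hr at 37 °C, then exposed to compound for 40 hr at 37 °C in complete medium. Viability read as intracellular ATP by CellTiter-Glo luminescence; AC50 from Hill-equation fits of concentration-response data.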

[4] = MultiTox-Fluor Cytotoxicity Assay - LYMP1-002 - Dead Cells (AID 960; active = well fitted curve in the direction sought with a large enough effect; inconclusive = small, poorly fitted or top-dose-only effect, or another doubt; inactive = no such curve, though single readings can be large; an effect the other way counts as inactive or inconclusive; also: potency is read from the fitted curve at half-maximal effect; nearly all actives have a fitted effect of over 60% in size); conditions: LYMP1-002 lymphoblastoid cells, dead-cell protease fluorescence; cytotoxicity (dead cells): at 46.1 µM (top of the series)
Procedure, shortened: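 Human lymphoblastoid LYMP1-002 cells, 2500/well, treated 16 h at 37 C; dead-cell protease cleavage of bis-AAF-R110 read by fluorescence (485/520); normalized to DMSO and 15 uM tetraoctylammonium bromide; AC50 from Hill fit.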

[5] = Cell Viability - LYMP2-005 (AID 967; active = well fitted curve in the direction sought with a large enough effect; inconclusive = small, poorly fitted or top-dose-only effect, or another doubt; inactive = no such curve, though single readings can be large; an effect the other way counts as inactive or inconclusive; also: potency is read from the fitted curve at half-maximal effect)
Procedure, shortened: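 LYMP2-005 human lymphoblastoid cells (2500/well) were treated with compounds for 24 h at 37 C. Intracellular ATP was then measured by CellTiter-Glo luminescence after 30 min at room temperature. AC50 values came from Hill-equation fits of qHTS concentration-response data.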

[6] = Cell Viability - LYMP2-014 (AID 983; active = well fitted curve in the direction sought with a large enough effect; inconclusive = small, poorly fitted or top-dose-only effect, or another doubt; inactive = no such curve, though single readings can be large; an effect the other way counts as inactive or inconclusive;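 also: plate controls were DMSO only for no effect and 92 µM tetraoctylammonium bromide for full effect; nearly all actives have a fitted effect of over 50% in size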)
Procedure, shortened: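 LYMP2-014 human lymphoblastoid cells, 2500/well, treated 24 h at 37 C in complete medium; viability by CellTiter-Glo ATP luminescence after 30 min at room temperature. AC50 from Hill fits of qHTS concentration-response; tetraoctylammonium bromide positive control.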

[7] = qHTS Assay for Identification of Small Molecule Inducers of Hypoxia Response (AID 2120; active = well fitted curve in the direction sought with a large enough effect in the signal ratio, with a control signal flat, not every such curve was filed as active; inconclusive = small, poorly fitted or top-dose-only effect, or a change in a side signal; inactive = no such curve, though single readings can be large or run the other way; the % refers to the signal ratio; also: potency is read from the fitted curve at half-maximal effect); conditions: hypoxia response reporter cells, beta-lactamase ratio readout; activation: at 104 µM (top of the series)
Procedure, shortened: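 HRE-bla ME-180 cells in Opti-MEM with 0.5% dialyzed FBS, pre-plated 4-5 h, then compound titration for 17 h at 37 degrees Celsius. CCF4 loaded 2.5 h at room temperature; 460/530 nm ratio gave %Activity and AC50 for induction.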

[8] = molecular target: Estrogen receptor (Homo sapiens) (UniProt P03372); experiment: qHTS assay for small molecule agonists of estrogen receptor alpha signaling (AID 588514); conditions: ER-alpha-UAS-bla HEK293, beta-lactamase ratio, 18 h; activation: at 76.8 µM (top of the series), percent of full estradiol response, vehicle zero; also: potency is read from the fitted curve at half-maximal effect; nearly all actives have a fitted effect of over 70% in size
Procedure, shortened: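 ER-alpha-UAS-bla GripTite HEK293 cells, 5000/well in 2% charcoal/dextran-stripped FBS medium, treated with compound titrations 18 h at 37 C. CCF4 beta-lactamase read by fluorescence after 2 h RT; normalised to 20 nM 17-beta-estradiol (100%) and DMSO (0%), Hill fit for EC50 and efficacy.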

[9] = molecular target: Glucocorticoid receptor (Homo sapiens) (UniProt P04150); experiment: qHTS assay for small molecule agonists of glucocorticoid receptor signaling (AID 588532; active = well fitted curve in the direction sought with a large enough effect in the signal ratio, with a control signal flat; inconclusive = small, poorly fitted or top-dose-only effect, or a change in a side signal; inactive = no such curve, though single readings can be large or run the other way; the % refers to the signal ratio; also: potency is read from the fitted curve at half-maximal effect); conditions: HeLa MMTV-bla, beta-lactamase ratio, agonist, 18 h; activation: active compounds read high, percent of dexamethasone control, DMSO zero
Procedure, shortened: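 Quantitative HTS using CellSensor MMTV-bla HeLa cells in charcoal/dextran-treated serum; compounds tested up to 92 uM. After 18 h at 37 C, CCF4 dye reported reporter induction.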

[10] = molecular target: Peroxisome proliferator-activated receptor delta (Homo sapiens) (UniProt Q03181); experiment: qHTS assay for small molecule antagonists of peroxisome proliferator-activated receptor delta signaling (AID 588535; active = well fitted inhibition curve with a large enough effect in the signal ratio, with a control signal flat, not every such curve was filed as active; inconclusive = small, poorly fitted or top-dose-only effect, or effect the other way, or a change in a side signal; inactive = no such curve, though single readings can be large or run the other way; the % refers to the signal ratio); conditions: HEK293T PPARd-UAS-bla, beta-lactamase FRET ratio, 18 h; activity change, negative = inhibition: at 76.7 µM (top of the series)
Procedure, shortened: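 HEK293T PPAR-delta-UAS-bla cells, 4000/well, 2% charcoal/dextran FBS; 5 h 37 C; cpd titration; 18 h 37 C; CCF4 2 h RT; FI 460/530 nm; Hill fit → IC50, efficacy.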

[11] = molecular target: Vitamin D3 receptor (Homo sapiens) (UniProt P11473); experiment: qHTS assay for small molecule agonists of vitamin D receptor signaling (AID 588543); conditions: HEK293T VDR-UAS-bla, beta-lactamase ratio, 16 h; activation: at 76.8 µM (top of the series); also: potency is read from the fitted curve at half-maximal effect
Procedure, shortened: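 Agonist-mode beta-lactamase reporter: HEK293T VDR-UAS-bla cells in charcoal-stripped 2% FBS, compound series 16 h 37 C, CCF4 2 h RT. EC50 from Hill fit, scaled against DMSO and 50 nM calcitriol control.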

[12] = molecular target: Retinoic acid receptor RXR-alpha (Homo sapiens) (UniProt P19793); experiment: qHTS assay for small molecule agonists of retinoid X receptor alpha signaling (AID 588544); conditions: HEK293T RXRa-UAS-bla, beta-lactamase reporter, 18 h; activation: at 76.7 µM (top of the series) unless noted; also: potency is read from the fitted curve at half-maximal effect
[13] = molecular target: Thyroid hormone receptor beta (Homo sapiens) (UniProt P10828); experiment: qHTS assay for small molecule agonists of thyroid hormone receptor beta signaling (AID 588545); conditions: TR-UAS-bla GripTite HEK 293, beta-lactamase ratio, agonist mode, 18 h; activation: at 76.7 µM, percent of T3 response, DMSO as zero; also: potency is read from the fitted curve at half-maximal effect
Procedure, shortened: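 Compounds were tested as agonists in TR-UAS-bla-GripTite HEK 293 cells. After 18 hrs at 37 C, CCF4 substrate was added and fluorescence read after 2 hrs at room temperature.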

[14] = qHTS assay for small molecule agonists of the antioxidant response element (ARE) signaling pathway (AID 651741; active = well fitted activation curve with a large enough effect in the signal ratio; inconclusive = small, poorly fitted or top-dose-only effect, or effect the other way, or a change in a side signal; the % refers to the signal ratio; also: potency is read from the fitted curve at half-maximal effect); conditions: HepG2 ARE-bla reporter, beta-lactamase FRET ratio, 16 h; activation: at 96 µM (top of the series) unless noted
Procedure, shortened: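 Quantitative HTS in HepG2 cells stably expressing an ARE-beta-lactamase reporter; 16 h compound exposure at 37 C, followed by 2 h room-temperature incubation with LiveBLAzer B/G FRET substrate and fluorescence measurement.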

[15] = qHTS assay for small molecule disruptors of the mitochondrial membrane potential - 1 hr assay (AID 651754); conditions: ratio change, negative = depolarisation: at 92.2 µM (top of the series); also: nearly all actives have a fitted effect of over 35% in size; also: potency is read from the fitted curve at half-maximal effect; as to ratio change, negative = depolarisation: % is scaled to controls: 0 for no effect and ±100 for the full control effect
Procedure, shortened: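 HepG2 cells, attached overnight, were exposed to compound for 1 hr at 37C, then stained 30 min with a potentiometric dye. Ratio of red aggregate (590nm) to green monomer (535nm) fluorescence reports membrane potential; collapse shifts signal toward green.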

[16] = qHTS assay for small molecule disruptors of the mitochondrial membrane potential - 5 hr assay (AID 651755); conditions: JC-1-type ratio dye; ratio change, negative = disruption: at 92.2 µM (top of the series); also: % is scaled to controls: 0 for no effect and ±100 for the full control effect; nearly all actives have a fitted effect of over 40% in size
Procedure, shortened: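 HepG2, 2,000 cells/well, overnight attach; cpd or DMSO 5 hr, 37C/5% CO2; Mito-MPS 30 min 37C; fluor 490/535 + 540/590 nm.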

[17] = molecular target: Tumor necrosis factor (Homo sapiens) (UniProt P01375); experiment: qHTS assay to identify small molecules that stimulate Tumor Necrosis Factor-alpha (TNF-alpha) secretion (AID 651757; active = well fitted curve in the direction sought with a large enough effect in the signal ratio; inconclusive = small, poorly fitted or top-dose-only effect, or a change in a side signal; inactive = no such curve, though single readings can be large or run the other way; the % refers to the signal ratio; also: potency is read from the fitted curve at half-maximal effect); conditions: Human cells, HTRF 665/615 ratio; activation (TNF-alpha secretion): at 92.2 µM (top of the series)
Procedure, shortened: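 THP-1 cells (3000/well) exposed to compounds 17 hrs at 37 C. Secreted TNF-alpha detected by HTRF with cryptate- and XL665-labeled anti-TNF-alpha antibodies after 3 hr at room temperature.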

[18] = qHTS assay to identify small molecules that stimulate interleukin-8 (IL-8) secretion (AID 651758; active = well fitted activation curve with a large enough effect in the signal ratio; inconclusive = small, poorly fitted or top-dose-only effect, or effect the other way, or a change in a side signal; the % refers to the signal ratio; also: 0% is about no effect); conditions: HTRF ratio (665/615); activation: at 92.2 µM (top of the series)
Procedure, shortened: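 Secreted IL-8 measured by TR-FRET sandwich (cryptate and XL665 antibodies) from THP-1 cells exposed to compound overnight (16 hrs, 37 C).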

[19] = qHTS assay for small molecule agonists of the antioxidant response element (ARE) signaling pathway measured by Nrf2-dependant transcriptional activity (AID 720636; active = well fitted curve in the direction sought with a large enough effect in the repeat runs; inconclusive = weak or mixed curves; inactive = no such curve, though single readings can be large; an effect the other way counts as inactive or inconclusive; also: % of control where 0% means no effect)
Procedure, shortened: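 Nrf2-dependent transcription read as ONE-Glo luciferase signal from ARE-luc HepG2 reporter cells after 16 hr compound treatment at 37 C, 5% CO2, in assay medium with 1% dialyzed FBS.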

[20] = molecular target: Cytochrome P450 1A2 (Homo sapiens) (UniProt P05177); experiment: qHTS for inhibitors of CYPIA2 against the NCATS DSHEA and TCM libraries (AID 1919976; active = well fitted curve in the direction sought with a large enough effect; inconclusive = small, poorly fitted or top-dose-only effect, or another doubt; inactive = no such curve, though single readings can be large; an effect the other way counts as inactive or inconclusive;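 also: light from luciferin formed by CYP1A2 from a pro-luciferin substrate; % is scaled to controls: 0 for no effect and ±100 for the full control effect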)
Procedure, shortened: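 Human CYP1A2 with pro-luciferin substrate (typically 100 mM KPO4), 15 min preincubation with compound, then 1x NADPH regeneration for 30-45 min at room temperature in the dark. Luciferin quantified by luciferase luminescence; furafylline intraplate control.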

CC(=O)N1CCN(S(=O)(=O)c2ccc3c(c2)CC(=O)N3)CC1
active: Potency [1] 11.9 µM

CN(C)c1ccc(C2(c3ccc(N(C)C)cc3)OC(=O)c3cc(N(C)C)ccc32)cc1
inconclusive: Potency [2] 15.8 µM [inhibitor, partial curve] | activity change, negative = cytotoxicity [3] -41.6% | Potency [4] 39.8 µM [cytotoxic, partial curve, poor fit] | Potency [5] 0.251 µM [cytotoxic, full curve, poor fit] | Potency [7] 20 µM [side channel, falling, full curve] | Potency [8] 35.5 µM [rising, single point] | Potency [9] 22.4 µM [side channel, falling, partial curve, poor fit] | Potency [11] 39.8 µM [side channel, falling, partial curve] | Potency [12] 63.1 µM [side channel, falling, partial curve, poor fit] | Potency [13] 39.8 µM [side channel, falling, partial curve, poor fit] | Potency [14] 29.8 µM [side channel, falling, partial curve] | Potency [15] 8.41 µM [inhibitor, partial curve, poor fit] | ratio change, negative = disruption [16] -37.3% | Potency [17] 42.2 µM [activator, partial curve] | activation [18] 5.37%
inactive: Potency [6] | Potency [10]

O=C(O)c1ccccc1
inactive: Potency [19] | Potency [20]
inconclusive: ratio change, negative = depolarisation [15] -1.78% | activation [18] -20.8%

Reference: PubChem BioAssay (NCATS)
